Measurements reported in patent US6635431.
No constants are given. Whether binding was seen depends on the method and setting. For part of these data: In cells and extracts the contact can be indirect. Some entries that bind do so weakly or less than the wild type. Blank lines part the entries; values can stand above or below the molecule they belong to.

The chains behind the UniProt entries cited, without tags or fusion partners. Residues count along the entry.
UniProt P04114, residues 28-4563: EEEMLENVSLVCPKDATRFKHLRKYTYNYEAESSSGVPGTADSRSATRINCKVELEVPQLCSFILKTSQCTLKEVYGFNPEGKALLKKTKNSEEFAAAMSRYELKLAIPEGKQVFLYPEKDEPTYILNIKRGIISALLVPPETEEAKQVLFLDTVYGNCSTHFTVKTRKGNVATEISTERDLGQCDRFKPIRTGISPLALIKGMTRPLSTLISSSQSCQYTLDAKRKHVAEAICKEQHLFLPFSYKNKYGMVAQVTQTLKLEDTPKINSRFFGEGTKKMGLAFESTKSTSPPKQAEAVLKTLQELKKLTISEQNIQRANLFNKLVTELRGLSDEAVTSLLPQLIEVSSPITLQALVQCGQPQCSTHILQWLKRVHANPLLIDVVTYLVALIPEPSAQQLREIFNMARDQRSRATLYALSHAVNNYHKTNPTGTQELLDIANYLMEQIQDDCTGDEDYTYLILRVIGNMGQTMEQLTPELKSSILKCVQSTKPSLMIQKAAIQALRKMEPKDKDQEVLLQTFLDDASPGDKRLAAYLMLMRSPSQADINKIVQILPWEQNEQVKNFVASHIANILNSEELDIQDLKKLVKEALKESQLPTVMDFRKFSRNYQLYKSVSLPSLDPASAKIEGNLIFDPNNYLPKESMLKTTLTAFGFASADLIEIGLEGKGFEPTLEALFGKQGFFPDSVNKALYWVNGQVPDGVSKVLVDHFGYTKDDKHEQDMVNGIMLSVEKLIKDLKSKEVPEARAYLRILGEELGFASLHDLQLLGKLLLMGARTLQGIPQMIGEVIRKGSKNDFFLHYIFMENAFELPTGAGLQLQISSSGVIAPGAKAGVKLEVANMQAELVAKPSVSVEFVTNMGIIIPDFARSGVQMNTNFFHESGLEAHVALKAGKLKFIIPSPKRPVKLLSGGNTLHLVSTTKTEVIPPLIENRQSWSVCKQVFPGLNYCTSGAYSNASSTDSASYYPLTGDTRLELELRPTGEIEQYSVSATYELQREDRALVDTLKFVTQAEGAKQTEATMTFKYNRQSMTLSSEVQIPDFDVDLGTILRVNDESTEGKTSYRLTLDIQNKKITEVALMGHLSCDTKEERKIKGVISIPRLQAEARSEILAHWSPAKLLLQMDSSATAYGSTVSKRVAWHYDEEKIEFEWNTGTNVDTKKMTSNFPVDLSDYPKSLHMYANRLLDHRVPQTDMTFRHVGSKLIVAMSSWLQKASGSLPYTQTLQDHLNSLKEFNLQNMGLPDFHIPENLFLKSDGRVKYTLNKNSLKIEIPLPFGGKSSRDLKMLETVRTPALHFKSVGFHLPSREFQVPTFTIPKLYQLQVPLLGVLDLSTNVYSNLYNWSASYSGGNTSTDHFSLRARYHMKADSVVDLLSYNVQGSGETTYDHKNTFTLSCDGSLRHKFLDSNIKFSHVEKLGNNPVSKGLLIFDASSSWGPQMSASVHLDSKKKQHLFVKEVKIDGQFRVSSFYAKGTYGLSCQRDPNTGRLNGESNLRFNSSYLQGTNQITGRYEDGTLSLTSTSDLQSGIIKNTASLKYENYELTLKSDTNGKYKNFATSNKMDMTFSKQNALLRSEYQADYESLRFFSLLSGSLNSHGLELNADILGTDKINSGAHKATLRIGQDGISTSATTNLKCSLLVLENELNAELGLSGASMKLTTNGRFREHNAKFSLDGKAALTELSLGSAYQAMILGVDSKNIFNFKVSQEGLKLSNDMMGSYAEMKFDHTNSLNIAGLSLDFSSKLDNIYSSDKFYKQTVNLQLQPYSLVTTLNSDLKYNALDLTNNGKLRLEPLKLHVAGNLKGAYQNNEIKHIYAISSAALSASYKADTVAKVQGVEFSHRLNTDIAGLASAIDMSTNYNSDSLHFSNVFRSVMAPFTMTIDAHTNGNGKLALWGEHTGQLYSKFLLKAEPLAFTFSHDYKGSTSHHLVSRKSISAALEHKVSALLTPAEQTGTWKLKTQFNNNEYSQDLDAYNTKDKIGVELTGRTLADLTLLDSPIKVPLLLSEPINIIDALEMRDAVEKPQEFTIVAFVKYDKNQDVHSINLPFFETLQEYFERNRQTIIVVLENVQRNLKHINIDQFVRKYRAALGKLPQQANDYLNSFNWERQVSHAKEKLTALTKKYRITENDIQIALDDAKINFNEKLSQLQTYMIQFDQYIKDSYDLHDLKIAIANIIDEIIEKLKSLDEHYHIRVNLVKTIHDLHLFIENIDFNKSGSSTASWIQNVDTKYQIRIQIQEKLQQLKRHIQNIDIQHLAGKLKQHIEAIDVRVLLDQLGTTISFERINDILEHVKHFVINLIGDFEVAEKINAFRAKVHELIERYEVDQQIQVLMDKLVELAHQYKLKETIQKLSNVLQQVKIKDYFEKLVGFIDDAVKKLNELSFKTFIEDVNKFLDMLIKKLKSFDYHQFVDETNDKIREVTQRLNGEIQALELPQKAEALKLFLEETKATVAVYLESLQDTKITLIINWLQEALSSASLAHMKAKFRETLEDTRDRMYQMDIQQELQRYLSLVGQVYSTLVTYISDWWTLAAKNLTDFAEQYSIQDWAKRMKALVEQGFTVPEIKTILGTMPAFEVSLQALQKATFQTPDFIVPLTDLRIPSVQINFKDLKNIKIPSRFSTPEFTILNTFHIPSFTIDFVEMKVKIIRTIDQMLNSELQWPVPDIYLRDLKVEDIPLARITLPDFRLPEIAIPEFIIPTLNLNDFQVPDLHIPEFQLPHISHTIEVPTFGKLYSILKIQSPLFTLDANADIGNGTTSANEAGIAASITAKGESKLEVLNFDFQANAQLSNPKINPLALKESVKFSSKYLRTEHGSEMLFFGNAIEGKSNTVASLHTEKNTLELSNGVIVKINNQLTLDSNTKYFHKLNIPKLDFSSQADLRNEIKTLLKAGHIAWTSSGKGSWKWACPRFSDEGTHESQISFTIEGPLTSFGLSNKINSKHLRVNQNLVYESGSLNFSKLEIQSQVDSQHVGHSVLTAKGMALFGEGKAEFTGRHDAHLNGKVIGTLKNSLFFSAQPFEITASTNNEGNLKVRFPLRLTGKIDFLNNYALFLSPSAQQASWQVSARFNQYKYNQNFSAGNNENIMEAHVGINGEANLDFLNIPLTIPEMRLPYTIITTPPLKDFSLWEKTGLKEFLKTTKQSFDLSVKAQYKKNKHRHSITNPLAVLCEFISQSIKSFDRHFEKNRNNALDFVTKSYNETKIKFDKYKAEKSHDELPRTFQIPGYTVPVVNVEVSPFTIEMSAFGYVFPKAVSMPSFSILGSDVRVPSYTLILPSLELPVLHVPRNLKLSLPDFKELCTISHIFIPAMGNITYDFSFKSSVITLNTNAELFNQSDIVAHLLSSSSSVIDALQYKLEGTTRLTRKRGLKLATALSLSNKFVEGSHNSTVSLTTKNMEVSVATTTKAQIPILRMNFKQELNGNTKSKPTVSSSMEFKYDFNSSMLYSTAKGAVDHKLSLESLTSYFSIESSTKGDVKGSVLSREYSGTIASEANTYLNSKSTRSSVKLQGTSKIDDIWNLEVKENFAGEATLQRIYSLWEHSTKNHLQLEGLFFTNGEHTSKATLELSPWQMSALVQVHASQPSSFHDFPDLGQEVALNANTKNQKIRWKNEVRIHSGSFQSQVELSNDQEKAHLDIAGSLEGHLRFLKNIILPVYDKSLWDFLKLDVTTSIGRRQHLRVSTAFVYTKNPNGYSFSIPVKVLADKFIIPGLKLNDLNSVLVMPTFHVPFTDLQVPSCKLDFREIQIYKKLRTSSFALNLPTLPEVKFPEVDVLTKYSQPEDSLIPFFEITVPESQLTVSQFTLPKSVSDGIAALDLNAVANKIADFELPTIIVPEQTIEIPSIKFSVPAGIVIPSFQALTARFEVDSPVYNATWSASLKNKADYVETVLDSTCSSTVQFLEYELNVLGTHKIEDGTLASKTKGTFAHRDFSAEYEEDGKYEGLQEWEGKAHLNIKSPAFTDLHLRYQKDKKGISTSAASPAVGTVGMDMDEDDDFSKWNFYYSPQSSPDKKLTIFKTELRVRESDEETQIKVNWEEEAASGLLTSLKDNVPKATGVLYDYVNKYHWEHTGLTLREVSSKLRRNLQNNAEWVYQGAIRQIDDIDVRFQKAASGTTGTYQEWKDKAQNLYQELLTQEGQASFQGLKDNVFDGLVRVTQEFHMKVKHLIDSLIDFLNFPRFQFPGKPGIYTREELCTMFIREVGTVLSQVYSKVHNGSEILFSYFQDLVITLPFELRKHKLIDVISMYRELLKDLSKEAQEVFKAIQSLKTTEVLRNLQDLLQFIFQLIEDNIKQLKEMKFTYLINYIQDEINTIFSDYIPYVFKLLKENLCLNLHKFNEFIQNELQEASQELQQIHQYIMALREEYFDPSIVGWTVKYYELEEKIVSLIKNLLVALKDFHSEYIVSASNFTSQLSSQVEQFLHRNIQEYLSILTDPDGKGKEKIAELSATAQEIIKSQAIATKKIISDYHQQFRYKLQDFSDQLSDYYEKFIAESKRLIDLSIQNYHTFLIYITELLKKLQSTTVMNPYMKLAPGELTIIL

Experiments:
[1] = target: T1, rat LSR receptor (Lipolysis Stimulated Receptor), native multimeric complex of rat liver membranes and rat hepatocytes (rat) (UniProt Q9WU74); assay: ligand blotting of solubilized rat liver membrane proteins with 40 µg/ml 125I-LDL, with or without 0.8 mM oleate
T1 sequence 1: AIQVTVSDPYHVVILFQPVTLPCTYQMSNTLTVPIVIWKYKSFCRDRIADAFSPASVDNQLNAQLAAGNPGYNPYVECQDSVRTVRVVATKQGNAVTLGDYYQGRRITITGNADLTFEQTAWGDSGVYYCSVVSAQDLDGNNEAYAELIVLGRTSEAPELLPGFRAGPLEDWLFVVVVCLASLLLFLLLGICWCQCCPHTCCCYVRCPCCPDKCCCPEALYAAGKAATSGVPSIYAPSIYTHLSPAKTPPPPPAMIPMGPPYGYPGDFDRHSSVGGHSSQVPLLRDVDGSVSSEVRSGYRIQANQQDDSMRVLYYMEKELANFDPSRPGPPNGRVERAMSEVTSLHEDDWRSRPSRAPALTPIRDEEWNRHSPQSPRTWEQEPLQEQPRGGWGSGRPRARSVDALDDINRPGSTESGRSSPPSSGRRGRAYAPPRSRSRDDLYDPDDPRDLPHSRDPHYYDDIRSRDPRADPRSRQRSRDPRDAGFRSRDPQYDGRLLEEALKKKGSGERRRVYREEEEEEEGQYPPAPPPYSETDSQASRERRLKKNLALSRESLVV
T1 sequence 2: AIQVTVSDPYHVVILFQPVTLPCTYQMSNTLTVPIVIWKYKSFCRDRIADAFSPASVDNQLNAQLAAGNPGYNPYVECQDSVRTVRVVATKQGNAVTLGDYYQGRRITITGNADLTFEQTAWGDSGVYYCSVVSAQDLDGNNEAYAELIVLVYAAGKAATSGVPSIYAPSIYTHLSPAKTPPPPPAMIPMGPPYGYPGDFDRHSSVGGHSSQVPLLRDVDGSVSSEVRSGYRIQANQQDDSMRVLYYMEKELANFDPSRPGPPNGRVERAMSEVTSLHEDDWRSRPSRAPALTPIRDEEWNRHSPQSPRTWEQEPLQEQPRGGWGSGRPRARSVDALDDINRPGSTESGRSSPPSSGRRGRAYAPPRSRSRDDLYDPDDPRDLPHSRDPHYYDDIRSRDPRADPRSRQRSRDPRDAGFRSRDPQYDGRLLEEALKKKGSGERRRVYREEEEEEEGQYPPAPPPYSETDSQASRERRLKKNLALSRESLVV

[2] = target: T2, recombinant rat LSR receptor expressed in CHO-K1 cells co-transfected with the α and β plasmids (rat) (UniProt Q9WU74); assay: binding, internalization and degradation of 125I-LDL on transiently transfected CHO-K1 cells with or without 1 mM oleate
T2 sequence 1: T1 sequence 1
T2 sequence 2: T1 sequence 2

[3] = target: T3, β subunit of rat LSR (product of cDNA LSR-Rn-1893) (rat) (UniProt Q9WU74); assay: ligand blotting of α and β subunits partially purified with sarkosyl, 125I-LDL with oleate
T3 sequence: T1 sequence 2

[4] = target: T4, α subunit of rat LSR (product of cDNA LSR-Rn-2097) (rat) (UniProt Q9WU74); assay: as above
T4 sequence: T1 sequence 1

[5] = target: T3, β subunit of rat LSR (product of cDNA LSR-Rn-1893) (rat); assay: flotation of 35S-labelled in vitro translated LSR with LDL
[6] = target: T4, α subunit of rat LSR (product of cDNA LSR-Rn-2097) (rat); assay: as above
[7] = target: T1, rat LSR receptor (Lipolysis Stimulated Receptor), native multimeric complex of rat liver membranes and rat hepatocytes (rat); assay: ligand blotting with oleate
[8] = target: T1, rat LSR receptor (Lipolysis Stimulated Receptor), native multimeric complex of rat liver membranes and rat hepatocytes (rat); assay: immunoprecipitation of rat hepatocyte lysates with anti-LSR antibodies, reducing conditions
[9] = target: T1, rat LSR receptor (Lipolysis Stimulated Receptor), native multimeric complex of rat liver membranes and rat hepatocytes (rat); assay: co-purification on an anti-LSR immunoaffinity resin with NH2-terminal sequencing; inhibition of LSR activity by anti-gC1q-R peptide antibodies

- binding [1]: binds
- binding [2]: binds
- binding [3]: binds
- binding [4]: binds
- binding [5]: binds
- binding [6]: binds
- binding [7]: binds
Molecule: LDL (low-density lipoprotein, 1.025<d<1.055 g/ml) isolated from plasma of volunteers (from UniProt P04114 28-4563)

- binding [8]: binds
- binding [9]: binds
B1: γ subunit of LSR, about 35 kDa, identified as gC1q-R (or a structurally similar homologue) from rat liver membranes (protein, UniProt O35796 72-279, looked up)
chain: LHTEGDKAFVEFLTDEIKEEKKIQKHKSLPKMSGDWELEVNGTEAKLLRKVAGEKITVTFNINNSIPPTFDGEEEPSQGQKAEEQEPELTSTPNFVVEVTKTDGKKTLVLDCHYPEDEIGHEDEAESDIFSIKEVSFQTTGDSEWRDTNYTLNTDSLDWALYDHLMDFLADRGVDNTFADELVELSTALEHQEYITFLEDLKSFVKSQ
